Results are given in words; binding and its absence hold for the method and conditions named. Binding seen in cells or lysates may run through a third protein. Some binding calls cover weakened binding; strength is not graded here. For some assays here: Where a sequence is shown, tags or fusion partners need not be part of it.
Key:
[1] = target: T1, full-length Scc2 with a C-terminal Pk epitope tag (S. cerevisiae) (UniProt Q04002); assay: co-IP; full-length Scc2, Scc2N or Scc2C immunoprecipitated from extracts of cells depleted of endogenous Scc2; co-immunoprecipitation of Scc4 (Figure S5B)
T1 sequence: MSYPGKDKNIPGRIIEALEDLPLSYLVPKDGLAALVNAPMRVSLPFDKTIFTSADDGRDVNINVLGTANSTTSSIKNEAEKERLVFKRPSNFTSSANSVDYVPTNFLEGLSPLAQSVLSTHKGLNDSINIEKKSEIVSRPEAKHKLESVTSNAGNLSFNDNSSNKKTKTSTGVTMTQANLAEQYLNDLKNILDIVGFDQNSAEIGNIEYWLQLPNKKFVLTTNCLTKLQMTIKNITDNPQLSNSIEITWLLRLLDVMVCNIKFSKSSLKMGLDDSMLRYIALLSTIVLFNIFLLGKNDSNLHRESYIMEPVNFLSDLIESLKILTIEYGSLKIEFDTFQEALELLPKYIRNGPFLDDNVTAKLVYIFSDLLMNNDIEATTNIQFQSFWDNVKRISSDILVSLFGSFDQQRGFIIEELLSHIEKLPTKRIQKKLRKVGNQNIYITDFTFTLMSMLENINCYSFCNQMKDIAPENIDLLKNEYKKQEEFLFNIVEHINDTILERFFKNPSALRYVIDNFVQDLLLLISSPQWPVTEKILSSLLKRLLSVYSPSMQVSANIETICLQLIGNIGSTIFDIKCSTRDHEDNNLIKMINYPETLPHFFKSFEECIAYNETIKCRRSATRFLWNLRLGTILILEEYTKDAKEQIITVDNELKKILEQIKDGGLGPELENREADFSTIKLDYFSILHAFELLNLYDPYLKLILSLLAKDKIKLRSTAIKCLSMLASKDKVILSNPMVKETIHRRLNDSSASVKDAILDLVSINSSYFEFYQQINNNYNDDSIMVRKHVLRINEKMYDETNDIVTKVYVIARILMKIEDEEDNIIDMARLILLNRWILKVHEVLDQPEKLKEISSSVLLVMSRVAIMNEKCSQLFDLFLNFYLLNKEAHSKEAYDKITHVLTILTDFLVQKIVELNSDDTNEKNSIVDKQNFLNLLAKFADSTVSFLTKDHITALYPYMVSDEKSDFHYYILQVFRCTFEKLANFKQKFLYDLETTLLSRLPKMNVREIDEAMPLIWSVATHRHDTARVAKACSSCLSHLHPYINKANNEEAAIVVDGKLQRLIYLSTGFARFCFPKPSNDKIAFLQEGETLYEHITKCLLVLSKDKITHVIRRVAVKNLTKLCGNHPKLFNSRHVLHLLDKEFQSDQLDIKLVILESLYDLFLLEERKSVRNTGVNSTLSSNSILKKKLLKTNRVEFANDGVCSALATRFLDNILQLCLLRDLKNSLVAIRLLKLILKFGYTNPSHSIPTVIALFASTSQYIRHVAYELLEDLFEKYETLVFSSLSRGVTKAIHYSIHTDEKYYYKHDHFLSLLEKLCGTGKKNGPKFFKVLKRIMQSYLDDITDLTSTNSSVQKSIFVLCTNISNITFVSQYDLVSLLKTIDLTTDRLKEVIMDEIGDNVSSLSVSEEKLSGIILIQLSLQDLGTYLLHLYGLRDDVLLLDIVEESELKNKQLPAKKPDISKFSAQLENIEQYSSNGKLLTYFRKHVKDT

By UniProt entry, the sequences of proteins in these tests, tags left out. Where a name states a change or a piece, a line headed by the entry shows the natural chain unless it says otherwise.
UniProt P32597: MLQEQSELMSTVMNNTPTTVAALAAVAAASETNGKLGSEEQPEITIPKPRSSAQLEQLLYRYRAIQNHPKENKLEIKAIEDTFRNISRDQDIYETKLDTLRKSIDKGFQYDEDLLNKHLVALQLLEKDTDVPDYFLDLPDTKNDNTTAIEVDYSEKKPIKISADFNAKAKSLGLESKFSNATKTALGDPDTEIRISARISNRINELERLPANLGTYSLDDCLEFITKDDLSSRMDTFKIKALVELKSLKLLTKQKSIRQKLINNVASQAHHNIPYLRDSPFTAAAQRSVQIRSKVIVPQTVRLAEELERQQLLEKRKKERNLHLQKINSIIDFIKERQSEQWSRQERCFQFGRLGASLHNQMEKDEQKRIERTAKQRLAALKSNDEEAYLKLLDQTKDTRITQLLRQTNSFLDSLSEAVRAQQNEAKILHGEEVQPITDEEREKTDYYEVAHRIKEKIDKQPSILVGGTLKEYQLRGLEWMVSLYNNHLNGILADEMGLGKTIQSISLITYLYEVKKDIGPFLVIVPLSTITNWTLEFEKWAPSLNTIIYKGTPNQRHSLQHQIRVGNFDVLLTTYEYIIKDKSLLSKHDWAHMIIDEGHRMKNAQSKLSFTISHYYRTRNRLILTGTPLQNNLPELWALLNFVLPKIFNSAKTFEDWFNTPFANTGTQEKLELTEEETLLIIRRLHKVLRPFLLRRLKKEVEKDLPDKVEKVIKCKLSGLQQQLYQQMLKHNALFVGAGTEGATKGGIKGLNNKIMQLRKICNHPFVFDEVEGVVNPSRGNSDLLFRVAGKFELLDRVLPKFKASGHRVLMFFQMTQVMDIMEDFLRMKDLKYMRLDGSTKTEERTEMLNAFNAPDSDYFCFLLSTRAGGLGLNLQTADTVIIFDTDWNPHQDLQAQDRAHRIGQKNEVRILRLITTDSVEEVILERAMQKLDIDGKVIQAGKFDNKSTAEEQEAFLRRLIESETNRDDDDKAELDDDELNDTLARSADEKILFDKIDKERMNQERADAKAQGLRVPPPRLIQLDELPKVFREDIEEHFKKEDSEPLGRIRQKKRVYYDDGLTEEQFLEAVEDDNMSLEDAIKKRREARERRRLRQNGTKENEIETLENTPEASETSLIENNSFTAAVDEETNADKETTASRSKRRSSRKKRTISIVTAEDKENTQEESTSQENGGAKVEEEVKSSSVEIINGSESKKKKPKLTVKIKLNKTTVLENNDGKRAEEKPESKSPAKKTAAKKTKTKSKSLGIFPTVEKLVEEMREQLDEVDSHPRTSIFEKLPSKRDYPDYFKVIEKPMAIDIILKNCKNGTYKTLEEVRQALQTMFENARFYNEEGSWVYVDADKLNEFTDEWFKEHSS

[2] = target: Sth1 fused to a protein A tag (S. cerevisiae) (UniProt P32597); assay: co-IP; protein A-tagged Sth1 precipitated on IgG coated Dynabeads from cell extracts in EBX buffer (50 mM HEPES-KOH pH 7.5, 100 mM KCl, 2.5 mM MgCl2, 10% glycerol, 0.25% Triton X-100, 1 mM DTT, benzonase); cells released from G1 into nocodazole arrest; also with Scc1 repressed, with Scc2 depleted, in G1 arrest, or with endogenous Scc2 replaced by full-length Scc2-Pk; immunoblot
[3] = target: Sth1^K501R fused to a protein A tag (S. cerevisiae) (UniProt P32597); assay: as above

B1: Scc4 (protein, UniProt P40090 1-624)
chain: MENLGDKLSISQVYHLAQEYRDHAYSIANKIGSEEGLKQYYGLMNMSIQMFQLLKTKCTLSVLEDSKVTFEMVELLIQETYNFDLAELYISSLKERLQTHQSDTDLVEEIMRCEFLLLHDLPLMRDSKFHYKIALRNCNELVQYMVNLQDELYQNWASVFQYVGVMLCIKLKQHRRVKTSFHGLLSQCREKSQWKWFLNLCYVNYLLNERFPIPEDALQELRSTELHTVGPELYAWKLALEMVIQLCKDGNITDHLNEFKNFFDTNKQSLVTNEGKGCVIKIMPRIALKVELPMIFHYKELKNILLLLQSVSYIVNCYDEKGNFSRKFLPKVYSTTQKLIKNIAAGGVSMNELDSRIQTYKSILEFCEFYKVWEQTLLKGAVVTTESPKLGPSPGYVRLLQAMKVQFEGGGAVEEYTRLAQSGGTSSEVKMISLLNCYTVQAARVSRCSGDKQGELVEQCNKVWLQVEKLLQETDLQFNPIWECTVTILWLFSHFEPFSWNPLPCSDKQRAEYVSKLREFYSSNKFVAGEAVADNRFKLKKALLLQILVNYLGGRMLEHDLGEIYAISAKCFDMCRQQGGMRKVQYVIGIWHLMNCTVAMRGKDVALTNAKLEALVKQITSVKQ
binding [1]: binds
binding [2]: binds
binding [3]: binds

B2: Scc1 (protein, UniProt Q12158 1-566)
chain: MVTENPQRLTVLRLATNKGPLAQIWLASNMSNIPRGSVIQTHIAESAKEIAKASGCDDESGDNEYITLRTSGELLQGIVRVYSKQATFLLTDIKDTLTKISMLFKTSQKMTSTVNRLNTVTRVHQLMLEDAVTEREVLVTPGLEFLDDTTIPVGLMAQENSMERKVQGAAPWDTSLEVGRRFSPDEDFEHNNLSSMNLDFDIEEGPITSKSWEEGTRQSSRNFDTHENYIQDDDFPLDDAGTIGWDLGITEKNDQNNDDDDNSVEQGRRLGESIMSEEPTDFGFDLDIEKEAPAGNIDTITDAMTESQPKQTGTRRNSKLLNTKSIQIDEETENSESIASSNTYKEERSNNLLTPQPTNFTTKRLWSEITESMSYLPDPILKNFLSYESLKKRKIHNGREGSIEEPELNVSLNLTDDVISNAGTNDNSFNELTDNMSDFVPIDAGLNEAPFPEENIIDAKTRNEQTTIQTEKVRPTPGEVASKAIVQMAKILRKELSEEKEVIFTDVLKSQANTEPENITKREASRGFFDILSLATEGCIGLSQTEAFGNIKIDAKPALFERFINA
binding [2]: binds

B3: full-length Scc2 with a C-terminal Pk epitope tag (protein, UniProt Q04002 1-1493)
chain: T1 sequence
binding [2]: binds

From article PMC6527865
